Drawing on publication PMC6918085, this text covers binding for five molecules.

Protein sequences, listed by entry. Tags and fused reporters are not part of them. Residues count along the entry.
UniProt P71451, residues 35-297: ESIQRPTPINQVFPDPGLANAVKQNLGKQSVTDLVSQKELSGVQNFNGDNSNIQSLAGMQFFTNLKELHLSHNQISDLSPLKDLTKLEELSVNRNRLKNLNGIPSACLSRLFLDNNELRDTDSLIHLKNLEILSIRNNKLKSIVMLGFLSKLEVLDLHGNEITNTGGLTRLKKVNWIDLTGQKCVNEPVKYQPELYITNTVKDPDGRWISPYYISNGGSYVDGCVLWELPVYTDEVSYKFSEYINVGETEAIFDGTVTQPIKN
UniProt Q9BYV6: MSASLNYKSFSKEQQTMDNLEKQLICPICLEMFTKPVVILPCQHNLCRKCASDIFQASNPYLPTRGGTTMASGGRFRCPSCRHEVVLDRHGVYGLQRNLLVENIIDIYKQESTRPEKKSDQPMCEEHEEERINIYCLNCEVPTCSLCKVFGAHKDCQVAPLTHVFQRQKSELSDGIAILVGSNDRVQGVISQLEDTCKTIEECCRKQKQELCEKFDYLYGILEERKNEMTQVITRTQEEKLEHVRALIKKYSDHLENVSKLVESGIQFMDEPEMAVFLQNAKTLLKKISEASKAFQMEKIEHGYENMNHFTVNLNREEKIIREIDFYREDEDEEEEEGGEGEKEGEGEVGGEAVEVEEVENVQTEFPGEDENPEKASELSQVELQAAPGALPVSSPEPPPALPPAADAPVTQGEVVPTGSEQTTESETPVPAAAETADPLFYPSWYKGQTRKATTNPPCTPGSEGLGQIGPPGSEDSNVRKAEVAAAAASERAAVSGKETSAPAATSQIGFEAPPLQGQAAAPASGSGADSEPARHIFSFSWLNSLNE
UniProt P30153: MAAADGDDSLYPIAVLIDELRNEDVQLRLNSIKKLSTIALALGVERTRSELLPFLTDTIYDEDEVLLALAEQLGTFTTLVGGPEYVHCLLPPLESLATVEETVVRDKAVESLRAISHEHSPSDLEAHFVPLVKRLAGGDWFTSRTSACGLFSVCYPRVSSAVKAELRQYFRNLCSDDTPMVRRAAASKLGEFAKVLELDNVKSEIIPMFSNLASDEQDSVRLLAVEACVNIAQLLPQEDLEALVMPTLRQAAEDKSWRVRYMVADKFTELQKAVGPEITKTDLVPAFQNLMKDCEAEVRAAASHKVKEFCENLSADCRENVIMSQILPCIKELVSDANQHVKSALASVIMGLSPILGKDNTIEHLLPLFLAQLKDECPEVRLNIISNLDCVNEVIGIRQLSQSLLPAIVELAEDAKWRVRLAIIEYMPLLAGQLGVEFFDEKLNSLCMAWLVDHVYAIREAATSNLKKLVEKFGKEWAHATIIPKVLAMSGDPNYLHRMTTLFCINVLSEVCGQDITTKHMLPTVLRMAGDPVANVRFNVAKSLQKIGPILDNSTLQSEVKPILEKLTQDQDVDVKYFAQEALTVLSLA
UniProt Q93034: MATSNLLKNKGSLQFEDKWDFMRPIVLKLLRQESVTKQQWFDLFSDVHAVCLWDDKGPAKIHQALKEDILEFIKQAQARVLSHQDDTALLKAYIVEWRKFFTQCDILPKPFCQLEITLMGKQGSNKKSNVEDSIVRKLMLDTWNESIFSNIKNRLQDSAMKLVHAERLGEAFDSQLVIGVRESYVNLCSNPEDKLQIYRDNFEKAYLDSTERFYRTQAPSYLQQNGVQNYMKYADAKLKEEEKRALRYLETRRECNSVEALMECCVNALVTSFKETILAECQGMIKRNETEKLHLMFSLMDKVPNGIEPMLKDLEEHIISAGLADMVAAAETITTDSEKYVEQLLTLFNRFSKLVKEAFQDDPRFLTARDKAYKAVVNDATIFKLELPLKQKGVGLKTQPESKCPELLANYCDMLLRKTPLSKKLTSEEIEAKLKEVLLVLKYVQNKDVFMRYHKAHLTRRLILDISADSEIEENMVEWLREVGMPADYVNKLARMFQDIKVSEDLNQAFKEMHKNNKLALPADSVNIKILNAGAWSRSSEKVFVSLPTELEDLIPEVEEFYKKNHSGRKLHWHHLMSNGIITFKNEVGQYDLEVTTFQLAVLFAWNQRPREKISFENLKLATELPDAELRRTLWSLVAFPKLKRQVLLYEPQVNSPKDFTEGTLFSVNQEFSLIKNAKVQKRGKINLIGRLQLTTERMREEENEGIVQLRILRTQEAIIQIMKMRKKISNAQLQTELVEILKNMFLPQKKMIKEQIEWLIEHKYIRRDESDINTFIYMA

Results are given in words; binding and its absence hold for the method and conditions named. In cells and extracts the contact can be indirect. Some entries that bind do so weakly or less than the wild type. Where a sequence is shown, tags or fusion partners need not be part of it.

Assay [1] has as its target InlC fused to the Nlc2 fragment of NanoLuc (Listeria monocytogenes) (UniProt P71451). Nature of the assay: split reporter; NPCA screen in HEK-293T cells: 67 human ORFs fused to Nlc1 (pSNL-N1) against InlC, InlC-K^all or InlC-K^224 fused to Nlc2 (pSNL-C2); luciferase activity 24 h after transfection.
The target in assay [2] is humanized FLAG-tagged InlC (Listeria monocytogenes) (UniProt P71451). Nature of the assay: co-IP; HeLa cells cotransfected with FLAG-tagged InlC forms and HA-tagged S100A9; FLAG lysis buffer (20 mM Tris-HCl pH 8.0, 1% Triton, 150 mM NaCl); anti-FLAG magnetic beads overnight at 4°C; eluted with 3x FLAG peptide; blot with anti-InlC and anti-HA.

For the molecule “TRIM55 fused to the Nlc1 fragment of NanoLuc (from UniProt Q9BYV6 1-548)”, in assay [1], the binding result is given as “binds”.

Consider “PPP2R1A fused to the Nlc1 fragment of NanoLuc (from UniProt P30153 1-589)”, for which, in assay [1], the binding result is given as “binds”.

For “cullin-5 fused to the Nlc1 fragment of NanoLuc (from UniProt Q93034 1-780)”, in assay [1], the binding entry was “binds”.

B1: PPP2R2A fused to the Nlc1 fragment of NanoLuc (protein, UniProt P63151 1-447)
chain: MAGAGGGNDIQWCFSQVKGAVDDDVAEADIISTVEFNHSGELLATGDKGGRVVIFQQEQENKIQSHSRGEYNVYSTFQSHEPEFDYLKSLEIEEKINKIRWLPQKNAAQFLLSTNDKTIKLWKISERDKRPEGYNLKEEDGRYRDPTTVTTLRVPVFRPMDLMVEASPRRIFANAHTYHINSISINSDYETYLSADDLRINLWHLEITDRSFNIVDIKPANMEELTEVITAAEFHPNSCNTFVYSSSKGTIRLCDMRASALCDRHSKLFEEPEDPSNRSFFSEIISSISDVKFSHSGRYMMTRDYLSVKIWDLNMENRPVETYQVHEYLRSKLCSLYENDCIFDKFECCWNGSDSVVMTGSYNNFFRMFDRNTKRDITLEASRENNKPRTVLKPRKVCASGKRKKDEISVDSLDFNKKILHTAWHPKENIIAVATTNNLYIFQDKVN
Regarding B1, in assay [1], the binding result is reported as “binds”.

B2: HA-tagged S100A9 (protein, UniProt P06702 1-114)
chain: MTCKMSQLERNIETIINTFHQYSVKLGHPDTLNQGEFKELVRKDLQNFLKKENKNEKVIEHIMEDLDTNADKQLSFEEFIMLMARLTWASHEKMHEGDEGPGHHHKPGLGEGTP
In the case of B2, the binding result in assay [2] was “binds”.
